Assay results published in the supplement of paper PMC12259267, “Disruption of the KLHL37–N-Myc complex restores N-Myc degradation and arrests neuroblastoma growth in mouse models” (The Journal of Clinical Investigation, 2025).
Counter-ions that a name gives are not always drawn. This is one part of the list. Most values come without repeats; read them as rough.

test system: SK-N-BE(2); assay: inhibition of N-Myc immunofluorescence signal per cell relative to control (fraction); higher = stronger N-Myc protein reduction; conditions: 1 µM; 9 h

SMILES | inhibition of N-Myc immunofluorescence signal per cell
COc1ccc(C2=N[C@@H](c3ccc(Cl)cc3)[C@@H](c3ccc(Cl)cc3)N2C(=O)N2CCNC(=O)C2)c(OC(C)C)c1 [Nutlin-3] | 0.0346
CCOC(=O)CCNc1cc(N2CCc3ccccc3CC2)nc(-c2ccccn2)n1 | 0.193
O=C1CCC(N2C(=O)c3ccccc3C2=O)C(=O)N1 (stereo not given) [Thalidomide] | 0.281
COc1cc(Nc2ncc3c(n2)-c2ccc(Cl)cc2C(c2c(F)cccc2OC)=NC3)ccc1C(=O)O [Alisertib (MLN8237)] | 0.176
O=C(NCC(=O)N1CCCC1)Nc1ccc2cnccc2c1 | 0.0432
Clc1cc2c(NC3CCCC3)nnc(-c3ccncc3)c2cc1Cl | -0.108
O=c1cc(-c2ccc(O)c(O)c2O)oc2ccccc12 | 0.0963
c1ccc([C@H]2CN3CCSC3=N2)cc1 [Levamisole (hydrochloride)] | 0.15
CC(C)(C)C(=O)Nc1ccc2c(c1)C(=O)C(=O)c1ccccc1-2 | -0.0559
Nc1nc(=S)c2[nH]cnc2[nH]1 [6-Thioguanine] | 0.102
CCCCc1ccc(NC(C)=O)c(C)c1 | 0.148
COC(=O)/C=C/C(=O)OC [Dimethyl Fumarate] | 0.046
CC1=NN(c2ccc(C(=O)O)cc2)C(=O)C1=Cc1ccc(-c2cc(C)c(C)cc2[N+](=O)[O-])o1 | -0.223
N#Cc1c(N)[nH]c2cc(/C=C/c3cccc(F)c3)ccc12 | 0.109
Cc1nn(-c2ccc3nnc(C)n3n2)c(C)c1CCC(=O)N1CCC(Cc2ccccc2)CC1 | -0.00265
O=C(NCC1(c2nc(-c3ccccc3)cs2)CCOCC1)c1cccc(-c2noc(C(F)(F)F)n2)c1 | -0.0101
O=C1CCc2c(ccc3ccccc23)O1 [Splitomicin] | 0.0504
O=C1/C(=C/c2ccc(Cl)c(Cl)c2)CNC/C1=C\c1ccc(Cl)c(Cl)c1 | 0.241

SMILES | inhibition of N-Myc immunofluorescence signal per cell
Cc1cc(OCc2nnc(SC3CCCC3)n2-c2cccnc2)ccc1-c1ccc(S(C)(=O)=O)cc1 | 0.0725
C=CS(=O)(=O)Nc1ccccc1-c1ccc(C(=O)N2CCC(O)(Cn3cnc4c(cnn4C)c3=O)CC2)cc1 | 0.101
[Na+].[Na+].[Na+].[O]=[V]([O-])([O-])[O-] [Sodium orthovanadate] | -0.222
O=C1CC(=O)c2c(Cl)c(Cl)c(Cl)c(Cl)c21 | 0.00769
N#Cc1ccc(Cn2cncc2CN2CCN(c3cccc(Cl)c3)C(=O)C2)cc1 | 0.00496
O=C(O)c1cnn(-c2nc3cc(OC(F)(F)F)c(Cl)cc3[nH]2)c1 | -0.3
COc1cc(C(N)=O)ccc1NC(=O)[C@@H]1N[C@@H](CC(C)(C)C)[C@@]2(C(=O)Nc3cc(Cl)ccc32)[C@H]1c1cccc(Cl)c1F | 0.0639
COc1ccc(C(NC(=O)c2cnc(-c3cccnn3)[nH]c2=O)c2ccc(OC)cc2)cc1 | 0.0467
Cc1cn(CCN2CCN(c3ccccc3-c3cc(C#N)cc(C(=O)NCCCN4CCCC4)c3)CC2)c2ccccc12 | -0.216
CCN(CC)Cc1cc(Nc2ccnc3cc(Cl)ccc23)ccc1O [Amodiaquine (dihydrochloride dihydrate)] | -0.0548
O=C(Nc1ccc2c(O)cc(S(=O)(=O)O)cc2c1)Nc1ccc2c(O)cc(S(=O)(=O)O)cc2c1 [AMI-1 (free acid)] | -0.195
NS(=O)(=O)OC[C@@H]1C[C@@H](n2ccc3c(N[C@H]4CCc5ccccc54)ncnc32)C[C@@H]1O [Pevonedistat] | -0.0553
CCCCNNC(=O)c1ccc(-c2cccc(F)c2F)cc1 | -0.0356
Cc1ncsc1-c1ccc(CNC(=O)[C@@H]2C[C@H](O)CN2C(=O)[C@@H](N)C(C)(C)C)cc1 [(S,S,S)-AHPC (hydrochloride)] | -0.031
CC(C)Oc1ccc(-c2c[nH]cc2CN(C)CCN)cc1 | -0.157
CCCC[C@@H](C=O)NC(=O)[C@H](CC(C)C)NC(=O)OCc1ccccc1 [Calpeptin] | -0.0433
CCOC(=O)[C@]1(c2ccccc2)N=C(c2ccc(OC)cc2)N(Cc2ccccc2)[C@@H]1c1ccc(NCc2ccccc2)cc1 | -0.173
